Assay results as given in the supplement of paper PMC10849652.
The other results are listed elsewhere or left out.

Protein sequences, listed by entry. Tags and fused reporters are not part of them. Lines headed by an entry give the natural chain unless they say otherwise; changes in a name come on top.
UniProt Q9Y2A7: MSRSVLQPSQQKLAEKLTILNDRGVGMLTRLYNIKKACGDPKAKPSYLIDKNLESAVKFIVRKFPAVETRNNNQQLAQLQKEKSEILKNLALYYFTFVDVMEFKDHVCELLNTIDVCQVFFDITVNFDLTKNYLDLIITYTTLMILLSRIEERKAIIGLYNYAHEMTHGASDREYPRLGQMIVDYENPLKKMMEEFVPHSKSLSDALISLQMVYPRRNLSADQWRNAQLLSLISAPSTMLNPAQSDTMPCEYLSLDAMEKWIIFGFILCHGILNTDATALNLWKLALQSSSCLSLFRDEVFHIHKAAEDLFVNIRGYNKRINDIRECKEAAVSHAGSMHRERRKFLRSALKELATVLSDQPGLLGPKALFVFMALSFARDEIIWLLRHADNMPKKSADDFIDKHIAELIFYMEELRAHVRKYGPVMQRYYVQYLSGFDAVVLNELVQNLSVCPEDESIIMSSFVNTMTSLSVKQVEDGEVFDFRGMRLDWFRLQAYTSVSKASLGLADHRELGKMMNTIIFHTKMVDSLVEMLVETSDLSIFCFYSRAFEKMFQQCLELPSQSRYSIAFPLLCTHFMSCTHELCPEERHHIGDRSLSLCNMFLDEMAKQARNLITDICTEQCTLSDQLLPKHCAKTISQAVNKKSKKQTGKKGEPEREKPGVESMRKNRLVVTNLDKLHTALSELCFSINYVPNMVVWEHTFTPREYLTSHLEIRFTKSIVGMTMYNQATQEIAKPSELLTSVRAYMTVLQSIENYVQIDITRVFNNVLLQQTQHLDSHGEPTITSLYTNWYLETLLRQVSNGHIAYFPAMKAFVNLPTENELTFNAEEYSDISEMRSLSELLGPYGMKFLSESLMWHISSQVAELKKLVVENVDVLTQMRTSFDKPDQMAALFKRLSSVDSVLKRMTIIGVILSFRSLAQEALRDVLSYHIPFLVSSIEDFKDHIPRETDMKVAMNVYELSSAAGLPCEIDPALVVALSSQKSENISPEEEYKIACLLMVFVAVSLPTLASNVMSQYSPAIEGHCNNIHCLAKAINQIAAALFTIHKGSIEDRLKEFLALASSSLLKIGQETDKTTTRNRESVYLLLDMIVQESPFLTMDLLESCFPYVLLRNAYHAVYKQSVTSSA
UniProt P42695: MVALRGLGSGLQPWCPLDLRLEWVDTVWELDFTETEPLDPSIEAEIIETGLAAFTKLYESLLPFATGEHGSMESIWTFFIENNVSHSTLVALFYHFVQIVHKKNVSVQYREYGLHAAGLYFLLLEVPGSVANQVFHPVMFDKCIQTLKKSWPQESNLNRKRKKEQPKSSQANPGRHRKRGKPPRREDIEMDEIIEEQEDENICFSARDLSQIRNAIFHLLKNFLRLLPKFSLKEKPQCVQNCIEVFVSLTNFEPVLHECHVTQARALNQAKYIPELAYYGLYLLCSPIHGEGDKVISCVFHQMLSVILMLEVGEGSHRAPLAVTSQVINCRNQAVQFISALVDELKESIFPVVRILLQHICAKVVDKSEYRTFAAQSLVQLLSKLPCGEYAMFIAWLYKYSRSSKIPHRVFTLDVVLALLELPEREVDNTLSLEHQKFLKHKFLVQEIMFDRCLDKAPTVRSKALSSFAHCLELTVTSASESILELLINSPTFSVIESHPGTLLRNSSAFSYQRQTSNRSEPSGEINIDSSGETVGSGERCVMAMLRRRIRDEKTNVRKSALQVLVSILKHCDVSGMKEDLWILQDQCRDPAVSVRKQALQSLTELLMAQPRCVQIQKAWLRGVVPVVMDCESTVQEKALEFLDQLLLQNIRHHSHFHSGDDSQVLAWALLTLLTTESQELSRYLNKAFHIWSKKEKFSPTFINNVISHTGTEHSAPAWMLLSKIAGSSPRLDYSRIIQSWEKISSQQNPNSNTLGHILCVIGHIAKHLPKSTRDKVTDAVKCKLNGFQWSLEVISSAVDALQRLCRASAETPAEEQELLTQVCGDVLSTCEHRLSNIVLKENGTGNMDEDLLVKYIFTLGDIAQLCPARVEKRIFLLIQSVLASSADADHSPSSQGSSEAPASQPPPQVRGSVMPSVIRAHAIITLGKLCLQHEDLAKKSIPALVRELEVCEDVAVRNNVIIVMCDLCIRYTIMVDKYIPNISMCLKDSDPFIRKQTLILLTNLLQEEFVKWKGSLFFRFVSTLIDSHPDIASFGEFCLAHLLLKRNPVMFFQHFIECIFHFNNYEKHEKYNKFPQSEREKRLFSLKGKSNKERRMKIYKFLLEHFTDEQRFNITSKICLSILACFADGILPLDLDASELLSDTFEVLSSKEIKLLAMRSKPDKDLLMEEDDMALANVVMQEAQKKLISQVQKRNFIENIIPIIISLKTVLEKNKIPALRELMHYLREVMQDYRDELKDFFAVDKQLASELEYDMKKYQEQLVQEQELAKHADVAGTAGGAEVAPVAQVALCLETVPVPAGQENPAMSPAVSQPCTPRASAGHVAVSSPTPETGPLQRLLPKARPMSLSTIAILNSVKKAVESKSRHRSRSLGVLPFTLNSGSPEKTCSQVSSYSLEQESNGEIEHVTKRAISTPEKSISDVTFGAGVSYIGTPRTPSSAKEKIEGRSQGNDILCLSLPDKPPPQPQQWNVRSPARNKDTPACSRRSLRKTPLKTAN
UniProt Q13459: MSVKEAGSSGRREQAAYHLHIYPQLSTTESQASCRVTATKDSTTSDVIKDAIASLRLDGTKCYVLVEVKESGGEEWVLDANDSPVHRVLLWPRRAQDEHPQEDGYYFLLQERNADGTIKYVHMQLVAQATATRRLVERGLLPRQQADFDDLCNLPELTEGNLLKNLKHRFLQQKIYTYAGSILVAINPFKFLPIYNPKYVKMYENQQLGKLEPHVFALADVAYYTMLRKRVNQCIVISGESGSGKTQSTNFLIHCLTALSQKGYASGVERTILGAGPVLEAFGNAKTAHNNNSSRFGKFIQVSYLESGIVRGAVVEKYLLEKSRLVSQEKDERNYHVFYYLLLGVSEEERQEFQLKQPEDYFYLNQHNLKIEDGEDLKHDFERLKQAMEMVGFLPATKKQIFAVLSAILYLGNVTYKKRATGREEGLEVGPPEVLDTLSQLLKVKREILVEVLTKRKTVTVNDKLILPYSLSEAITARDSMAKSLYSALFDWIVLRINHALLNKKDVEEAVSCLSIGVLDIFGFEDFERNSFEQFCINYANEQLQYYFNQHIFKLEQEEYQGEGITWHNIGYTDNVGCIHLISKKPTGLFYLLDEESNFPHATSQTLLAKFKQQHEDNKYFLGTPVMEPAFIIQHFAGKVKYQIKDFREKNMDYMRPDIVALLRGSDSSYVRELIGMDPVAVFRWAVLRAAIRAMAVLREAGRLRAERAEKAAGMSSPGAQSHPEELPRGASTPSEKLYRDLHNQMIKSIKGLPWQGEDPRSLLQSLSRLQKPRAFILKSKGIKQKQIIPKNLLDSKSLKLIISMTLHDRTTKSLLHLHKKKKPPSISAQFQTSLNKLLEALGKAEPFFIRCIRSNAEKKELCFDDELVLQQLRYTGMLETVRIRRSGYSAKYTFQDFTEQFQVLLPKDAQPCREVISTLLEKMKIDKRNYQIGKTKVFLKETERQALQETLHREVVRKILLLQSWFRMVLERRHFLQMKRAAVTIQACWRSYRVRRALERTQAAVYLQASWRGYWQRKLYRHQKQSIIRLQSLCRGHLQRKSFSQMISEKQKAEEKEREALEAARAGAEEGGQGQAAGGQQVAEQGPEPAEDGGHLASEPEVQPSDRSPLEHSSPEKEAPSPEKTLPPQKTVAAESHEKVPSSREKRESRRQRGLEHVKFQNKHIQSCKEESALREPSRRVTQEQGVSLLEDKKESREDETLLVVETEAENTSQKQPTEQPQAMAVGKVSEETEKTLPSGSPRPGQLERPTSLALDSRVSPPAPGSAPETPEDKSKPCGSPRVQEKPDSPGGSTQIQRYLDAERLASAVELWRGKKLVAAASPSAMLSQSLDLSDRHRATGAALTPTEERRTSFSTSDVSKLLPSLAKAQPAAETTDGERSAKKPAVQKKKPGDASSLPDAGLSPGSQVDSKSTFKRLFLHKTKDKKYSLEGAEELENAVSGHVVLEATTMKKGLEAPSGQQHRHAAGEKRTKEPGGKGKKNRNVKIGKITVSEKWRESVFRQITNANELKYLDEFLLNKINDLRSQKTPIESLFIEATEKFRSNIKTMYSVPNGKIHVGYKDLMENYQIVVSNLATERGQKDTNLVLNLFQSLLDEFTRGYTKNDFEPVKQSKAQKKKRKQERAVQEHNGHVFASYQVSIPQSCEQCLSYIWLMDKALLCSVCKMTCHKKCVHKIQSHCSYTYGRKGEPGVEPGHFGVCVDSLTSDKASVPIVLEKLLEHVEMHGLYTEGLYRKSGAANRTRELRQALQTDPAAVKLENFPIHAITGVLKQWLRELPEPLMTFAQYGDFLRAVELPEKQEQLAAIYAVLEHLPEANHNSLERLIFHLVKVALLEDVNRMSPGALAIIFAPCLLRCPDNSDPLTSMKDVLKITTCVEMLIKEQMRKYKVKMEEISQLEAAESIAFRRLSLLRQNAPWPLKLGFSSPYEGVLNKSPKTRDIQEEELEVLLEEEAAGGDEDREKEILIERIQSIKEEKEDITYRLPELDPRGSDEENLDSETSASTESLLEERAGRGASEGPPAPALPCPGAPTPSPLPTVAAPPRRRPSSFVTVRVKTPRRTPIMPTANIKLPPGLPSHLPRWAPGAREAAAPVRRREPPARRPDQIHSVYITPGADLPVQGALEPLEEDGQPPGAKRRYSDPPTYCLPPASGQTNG
UniProt Q8IW45: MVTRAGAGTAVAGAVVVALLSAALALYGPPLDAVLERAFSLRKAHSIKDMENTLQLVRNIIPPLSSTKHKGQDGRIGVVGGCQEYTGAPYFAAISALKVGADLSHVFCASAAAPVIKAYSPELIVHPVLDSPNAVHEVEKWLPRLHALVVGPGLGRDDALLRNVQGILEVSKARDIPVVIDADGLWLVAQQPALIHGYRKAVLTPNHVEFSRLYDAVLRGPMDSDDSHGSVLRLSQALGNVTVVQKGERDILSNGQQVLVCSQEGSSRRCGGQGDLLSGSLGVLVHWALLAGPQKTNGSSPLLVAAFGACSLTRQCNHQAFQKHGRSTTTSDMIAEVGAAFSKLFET
UniProt Q02083: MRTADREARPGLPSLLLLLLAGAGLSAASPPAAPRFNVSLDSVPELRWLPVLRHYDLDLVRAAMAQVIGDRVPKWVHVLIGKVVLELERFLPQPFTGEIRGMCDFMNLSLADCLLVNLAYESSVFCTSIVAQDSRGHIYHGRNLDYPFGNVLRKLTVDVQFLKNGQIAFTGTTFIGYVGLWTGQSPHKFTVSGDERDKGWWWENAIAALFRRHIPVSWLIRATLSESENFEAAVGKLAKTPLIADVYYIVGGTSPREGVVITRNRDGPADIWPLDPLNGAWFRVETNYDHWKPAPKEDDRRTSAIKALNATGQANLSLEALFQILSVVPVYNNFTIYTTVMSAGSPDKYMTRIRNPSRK
UniProt Q9Y5N5: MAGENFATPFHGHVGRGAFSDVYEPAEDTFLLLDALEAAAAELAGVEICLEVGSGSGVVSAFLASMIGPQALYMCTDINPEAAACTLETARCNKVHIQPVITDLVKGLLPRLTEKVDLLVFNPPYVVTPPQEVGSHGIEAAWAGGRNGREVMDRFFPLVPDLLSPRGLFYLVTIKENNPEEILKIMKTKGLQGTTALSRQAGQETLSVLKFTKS
UniProt Q99417: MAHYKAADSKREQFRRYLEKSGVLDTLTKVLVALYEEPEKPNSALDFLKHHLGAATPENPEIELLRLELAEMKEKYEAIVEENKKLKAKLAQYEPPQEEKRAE
UniProt Q92542, whole entry, looked up: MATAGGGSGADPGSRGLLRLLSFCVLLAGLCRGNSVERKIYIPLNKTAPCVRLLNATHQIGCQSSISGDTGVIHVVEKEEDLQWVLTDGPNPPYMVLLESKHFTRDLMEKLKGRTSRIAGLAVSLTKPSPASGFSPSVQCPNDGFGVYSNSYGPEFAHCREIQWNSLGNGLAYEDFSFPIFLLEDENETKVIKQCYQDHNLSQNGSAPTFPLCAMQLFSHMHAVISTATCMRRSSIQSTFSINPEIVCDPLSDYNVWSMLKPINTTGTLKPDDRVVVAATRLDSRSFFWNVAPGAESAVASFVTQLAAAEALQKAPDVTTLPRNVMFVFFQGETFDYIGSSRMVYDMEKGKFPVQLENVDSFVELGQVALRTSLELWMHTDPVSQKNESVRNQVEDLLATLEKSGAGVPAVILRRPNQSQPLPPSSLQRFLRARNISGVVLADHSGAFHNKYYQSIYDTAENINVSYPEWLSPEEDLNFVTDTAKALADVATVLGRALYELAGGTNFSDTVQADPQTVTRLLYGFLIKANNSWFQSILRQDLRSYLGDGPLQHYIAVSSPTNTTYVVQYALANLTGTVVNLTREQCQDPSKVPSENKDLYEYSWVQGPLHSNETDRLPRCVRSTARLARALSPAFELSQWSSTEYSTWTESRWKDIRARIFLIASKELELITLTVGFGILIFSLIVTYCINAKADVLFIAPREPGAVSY

Legend:
Experiment in all cases: log2 fold change, soluble protein after heating vs DMSO (PISA); higher = thermal stabilisation; K562 lysate, 10 uM; active = over 0.2 and 3.5 SD of the protein, either way, in both replicates (recomputed)
[1] = compound: NCC(=O)Nc1ccc(-n2nc(C(F)(F)F)cc2-c2ccc3c(ccc4ccccc43)c2)cc1
In short: (§1)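 Pellets of K562 cells were dounce-homogenised in PBS pH 7.4 with 1 mM MgCl2, and the crude extract was held at 1 mg/mL protein for a 30 min treatment with 10 μM compound. Aliquots were heated for 3 min over 48°C-58°C and pooled before NP-40 was added to 0.5% at 4°C. The supernatant from 21,000xg for 90 min was quantified by TMTpro 16plex LC-MS/MS with channel sums equalised. Values are reported from duplicates as log-two fold change in thermal stability relative to solvent controls.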

[2] = compound: O=C(CCCCCCC(=O)Nc1ccccc1)NO [vorinostat]
In short: as §1

[3] = compound: O=C(O)c1ccc2c(c1)nc(Nc1cccc(Cl)c1)c1ccncc12 [silmitasertib]
In short: as §1

[4] = compound: O=C1NC(=O)C(c2cnc3ccccn23)=C1c1cn2c3c(cc(F)cc13)CN(C(=O)N1CCCCC1)CC2
In short: as §1

[5] = compound: c1cn2cc(-c3ccc4cn[nH]c4c3)nc(Nc3ccc(N4CCOCC4)cc3)c2n1 [entospletinib]
In short: as §1

Row | Target | log2 fold change [1] | log2 fold change [2] | log2 fold change [3] | log2 fold change [4] | log2 fold change [5]
1 | NCKAP1 isoform 2 (UniProt Q9Y2A7) | inactive: -0.029 | inactive: -0.033 | inactive: 0.005 | inactive: 0.01 | inactive: 0.008
2 | NCDN isoform 3 (UniProt Q9UBB6) | inactive: 0.02 | inactive: -0.161 | inactive: 0.039 | inactive: -0.004 | inactive: 0.026
3 | MYCBP2 (UniProt O75592) | inactive: 0.031 | active: -0.223 | inactive: -0.002 | inactive: 0.007 | inactive: -0.002
4 | NCAPD3 (UniProt P42695) | inactive: -0.005 | active: -0.562 | inactive: 0.034 | inactive: -0.022 | inactive: -0.007
5 | MZT2A (UniProt Q6P582) | inactive: 0.12 | inactive: 0.007 | inactive: 0.017 | inactive: -0.09 | inactive: -0.015
6 | MYO18A (UniProt Q92614) | inactive: 0.009 | inactive: 0 | inactive: -0.027 | inactive: -0.014 | inactive: -0.003
7 | MYO9B (UniProt Q13459) | inactive: 0.043 | inactive: -0.135 | inactive: 0.046 | inactive: -0.038 | inactive: -0.018
8 | NAXD (UniProt Q8IW45) | inactive: -0.12 | inactive: 0.151 | inactive: -0.069 | inactive: 0.008 | inactive: -0.026
9 | NAPG (UniProt Q99747) | inactive: 0.01 | inactive: -0.011 | inactive: -0.034 | inactive: 0.019 | inactive: 0.009
10 | MYL6 isoform 2 (UniProt P60660) | inactive: 0 | inactive: -0.111 | inactive: 0.015 | inactive: 0.055 | inactive: 0.021
11 | NAA50 (UniProt Q9GZZ1) | inactive: 0.008 | inactive: 0.025 | inactive: 0.034 | inactive: -0.001 | inactive: 0.023
12 | NCOA4 isoform 4 (UniProt Q13772) | inactive: 0.015 | inactive: -0.202 | inactive: 0.038 | inactive: -0.037 | inactive: 0.023
13 | NAPA (UniProt P54920) | inactive: 0.014 | inactive: 0.087 | inactive: -0.003 | inactive: 0.024 | inactive: -0.038
14 | NCKIPSD (UniProt Q9NZQ3) | inactive: 0.005 | inactive: -0.214 | inactive: 0.027 | inactive: -0.062 | inactive: -0.008
15 | NACC1 (UniProt Q96RE7) | inactive: -0.014 | active: -0.231 | inactive: 0.024 | inactive: -0.004 | inactive: -0.036
16 | NCOA2 (UniProt Q15596) | inactive: 0.133 | inactive: -0.04 | inactive: -0.104 | inactive: 0.015 | inactive: -0.042
17 | NDC1 (UniProt Q9BTX1) | inactive: 0.013 | inactive: -0.134 | inactive: -0.016 | inactive: -0.012 | inactive: -0.016
18 | NAA40 (UniProt Q86UY6) | inactive: -0.087 | inactive: -0.067 | inactive: 0.082 | inactive: 0.045 | inactive: -0.052
19 | NCOA1 (UniProt Q15788) | inactive: 0.027 | inactive: -0.116 | inactive: -0.026 | inactive: 0.029 | inactive: -0.04
20 | MVD (UniProt P53602) | inactive: 0.014 | inactive: -0.163 | inactive: -0.004 | inactive: 0.016 | inactive: 0
21 | NBN (UniProt O60934) | inactive: -0.009 | active: -0.21 | inactive: 0.023 | inactive: -0.008 | inactive: -0.005
22 | NAGLU (UniProt P54802) | inactive: 0.003 | inactive: 0.138 | inactive: -0.044 | inactive: 0.059 | inactive: -0.051
23 | NCS1 (UniProt P62166) | inactive: 0.006 | inactive: 0.049 | inactive: -0.019 | inactive: -0.037 | inactive: -0.021
24 | NBAS (UniProt A2RRP1) | inactive: -0.068 | inactive: -0.238 | inactive: 0.089 | inactive: -0.053 | inactive: 0.029
25 | NAAA (UniProt Q02083) | inactive: -0.01 | inactive: 0.076 | inactive: -0.013 | inactive: -0.001 | inactive: 0.049
26 | NCBP2AS2 (UniProt Q69YL0) | inactive: -0.103 | inactive: 0.133 | inactive: 0.082 | inactive: 0.034 | inactive: -0.064
27 | NCEH1 (UniProt Q6PIU2) | inactive: -0.019 | inactive: 0.128 | inactive: 0.006 | inactive: -0.008 | inactive: -0.039

Rewritten as a markdown table: part of the list above.

| Row | Target | log2 fold change [1] | log2 fold change [2] | log2 fold change [3] | log2 fold change [4] | log2 fold change [5] |
| --- | --- | --- | --- | --- | --- | --- |
| 6 | MYO18A (UniProt Q92614) | inactive: 0.009 | inactive: 0 | inactive: -0.027 | inactive: -0.014 | inactive: -0.003 |
| 7 | MYO9B (UniProt Q13459) | inactive: 0.043 | inactive: -0.135 | inactive: 0.046 | inactive: -0.038 | inactive: -0.018 |
| 8 | NAXD (UniProt Q8IW45) | inactive: -0.12 | inactive: 0.151 | inactive: -0.069 | inactive: 0.008 | inactive: -0.026 |
| 9 | NAPG (UniProt Q99747) | inactive: 0.01 | inactive: -0.011 | inactive: -0.034 | inactive: 0.019 | inactive: 0.009 |
| 10 | MYL6 isoform 2 (UniProt P60660) | inactive: 0 | inactive: -0.111 | inactive: 0.015 | inactive: 0.055 | inactive: 0.021 |
| 11 | NAA50 (UniProt Q9GZZ1) | inactive: 0.008 | inactive: 0.025 | inactive: 0.034 | inactive: -0.001 | inactive: 0.023 |
| 12 | NCOA4 isoform 4 (UniProt Q13772) | inactive: 0.015 | inactive: -0.202 | inactive: 0.038 | inactive: -0.037 | inactive: 0.023 |
| 13 | NAPA (UniProt P54920) | inactive: 0.014 | inactive: 0.087 | inactive: -0.003 | inactive: 0.024 | inactive: -0.038 |
| 14 | NCKIPSD (UniProt Q9NZQ3) | inactive: 0.005 | inactive: -0.214 | inactive: 0.027 | inactive: -0.062 | inactive: -0.008 |
| 15 | NACC1 (UniProt Q96RE7) | inactive: -0.014 | active: -0.231 | inactive: 0.024 | inactive: -0.004 | inactive: -0.036 |
| 16 | NCOA2 (UniProt Q15596) | inactive: 0.133 | inactive: -0.04 | inactive: -0.104 | inactive: 0.015 | inactive: -0.042 |
| 17 | NDC1 (UniProt Q9BTX1) | inactive: 0.013 | inactive: -0.134 | inactive: -0.016 | inactive: -0.012 | inactive: -0.016 |
| 18 | NAA40 (UniProt Q86UY6) | inactive: -0.087 | inactive: -0.067 | inactive: 0.082 | inactive: 0.045 | inactive: -0.052 |
| 19 | NCOA1 (UniProt Q15788) | inactive: 0.027 | inactive: -0.116 | inactive: -0.026 | inactive: 0.029 | inactive: -0.04 |
| 20 | MVD (UniProt P53602) | inactive: 0.014 | inactive: -0.163 | inactive: -0.004 | inactive: 0.016 | inactive: 0 |

Next part

Row | Target | log2 fold change [1] | log2 fold change [2] | log2 fold change [3] | log2 fold change [4] | log2 fold change [5]
28 | NAPRT (UniProt Q6XQN6) | inactive: -0.032 | inactive: 0.07 | inactive: 0.03 | inactive: -0.063 | inactive: -0.009
29 | NABP2 (UniProt Q9BQ15) | inactive: 0.026 | inactive: -0.036 | inactive: -0.002 | inactive: -0.025 | inactive: 0.021
30 | NADK (UniProt O95544) | inactive: 0.012 | inactive: 0.05 | inactive: -0.049 | inactive: 0.013 | inactive: -0.042
31 | N6AMT1 (UniProt Q9Y5N5) | inactive: -0.043 | inactive: 0.076 | inactive: -0.025 | inactive: -0.007 | inactive: -0.011
32 | NAGK isoform 2 (UniProt Q9UJ70) | inactive: -0.037 | inactive: 0.186 | inactive: -0.016 | inactive: 0.012 | inactive: 0.013
33 | NACC2 (UniProt Q96BF6) | inactive: -0.133 | inactive: -0.403 | inactive: 0.171 | inactive: -0.193 | inactive: 0.18
34 | MYCBP (UniProt Q99417) | inactive: 0.006 | inactive: 0.113 | inactive: -0.015 | inactive: -0.025 | inactive: -0.075
35 | NCSTN (UniProt Q92542) | inactive: 0.041 | inactive: 0.13 | inactive: 0.025 | inactive: -0.008 | inactive: -0.007
36 | NAA30 (UniProt Q147X3) | inactive: -0.019 | active: -0.235 | inactive: 0.047 | inactive: 0.009 | inactive: -0.003
37 | NANS (UniProt Q9NR45) | inactive: 0.004 | inactive: 0.077 | inactive: 0.012 | inactive: 0.044 | inactive: 0.052
38 | MZT2B (UniProt Q6NZ67) | inactive: 0.037 | inactive: 0.048 | inactive: -0.046 | inactive: -0.037 | inactive: -0.073
39 | NCBP1 (UniProt Q09161) | inactive: 0.002 | inactive: -0.149 | inactive: 0.05 | inactive: -0.013 | inactive: -0.01
40 | NACA (UniProt E9PAV3) | inactive: 0.044 | inactive: 0.13 | inactive: -0.018 | inactive: -0.012 | inactive: -0.001
41 | NCOA3 (UniProt Q9Y6Q9) | inactive: 0.014 | inactive: -0.163 | inactive: -0.033 | inactive: -0.009 | inactive: -0.018
42 | NADSYN1 (UniProt Q6IA69) | inactive: -0.01 | inactive: 0.054 | inactive: -0.011 | inactive: -0.034 | inactive: -0.057
43 | MYL3 (UniProt P08590) | inactive: -0.106 | inactive: 0.107 | inactive: -0.042 | inactive: 0.017 | inactive: 0.008
44 | NAF1 (UniProt Q96HR8) | inactive: 0.017 | inactive: -0.042 | inactive: 0.002 | inactive: -0.023 | inactive: -0.013
45 | NAV1 (UniProt Q8NEY1) | inactive: 0.035 | inactive: -0.132 | inactive: 0.007 | inactive: -0.021 | inactive: 0.02
46 | MYB isoform 4 (UniProt P10242) | inactive: -0.01 | inactive: 0.002 | inactive: -0.013 | inactive: 0.011 | inactive: 0.051
47 | NBEA (UniProt Q8NFP9) | inactive: -0.013 | inactive: -0.152 | inactive: 0.015 | inactive: -0.062 | inactive: 0.025
48 | NASP (UniProt P49321) | inactive: 0.003 | inactive: 0.098 | inactive: -0.015 | inactive: 0.001 | inactive: 0.015
49 | MYO19 (UniProt Q96H55) | inactive: 0.04 | inactive: 0.049 | inactive: 0.152 | inactive: 0.088 | inactive: -0.064
50 | NBR1 (UniProt Q14596) | inactive: 0.031 | inactive: -0.073 | inactive: -0.038 | inactive: 0.019 | inactive: -0.226
51 | NACA4P (UniProt Q9BZK3) | inactive: 0.201 | inactive: 0.304 | inactive: 0 | inactive: 0.014 | inactive: -0.172
52 | MYH14 isoform 2 (UniProt Q7Z406) | inactive: 0.043 | inactive: 0.056 | inactive: 0.003 | inactive: -0.002 | inactive: 0.013
53 | NAA38 isoform 2 (UniProt Q9BRA0) | inactive: -0.015 | inactive: -0.088 | inactive: 0.009 | inactive: 0.04 | inactive: -0.035
